The source of these data is article PMC8118307.

Sequences of proteins named here, by UniProt entry; tags and fusion partners are left off.
UniProt P19525: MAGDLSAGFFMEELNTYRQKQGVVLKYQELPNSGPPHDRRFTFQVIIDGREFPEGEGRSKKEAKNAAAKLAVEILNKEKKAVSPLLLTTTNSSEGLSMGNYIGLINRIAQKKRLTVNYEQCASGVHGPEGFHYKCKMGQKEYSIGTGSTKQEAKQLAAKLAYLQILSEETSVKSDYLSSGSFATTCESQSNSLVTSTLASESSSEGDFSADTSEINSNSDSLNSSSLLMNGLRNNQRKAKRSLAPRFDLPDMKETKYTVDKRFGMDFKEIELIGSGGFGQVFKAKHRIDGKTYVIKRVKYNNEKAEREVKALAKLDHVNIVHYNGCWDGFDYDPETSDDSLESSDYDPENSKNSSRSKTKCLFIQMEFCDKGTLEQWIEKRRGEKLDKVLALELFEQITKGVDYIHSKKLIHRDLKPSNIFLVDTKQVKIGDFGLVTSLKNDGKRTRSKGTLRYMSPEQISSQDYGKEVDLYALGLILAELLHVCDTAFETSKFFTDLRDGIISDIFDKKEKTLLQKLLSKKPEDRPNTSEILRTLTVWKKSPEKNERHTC

Experiment [1] has as its target T1, N-terVenus:DICER N1 (human) (UniProt Q9UPY3).
T1 sequence: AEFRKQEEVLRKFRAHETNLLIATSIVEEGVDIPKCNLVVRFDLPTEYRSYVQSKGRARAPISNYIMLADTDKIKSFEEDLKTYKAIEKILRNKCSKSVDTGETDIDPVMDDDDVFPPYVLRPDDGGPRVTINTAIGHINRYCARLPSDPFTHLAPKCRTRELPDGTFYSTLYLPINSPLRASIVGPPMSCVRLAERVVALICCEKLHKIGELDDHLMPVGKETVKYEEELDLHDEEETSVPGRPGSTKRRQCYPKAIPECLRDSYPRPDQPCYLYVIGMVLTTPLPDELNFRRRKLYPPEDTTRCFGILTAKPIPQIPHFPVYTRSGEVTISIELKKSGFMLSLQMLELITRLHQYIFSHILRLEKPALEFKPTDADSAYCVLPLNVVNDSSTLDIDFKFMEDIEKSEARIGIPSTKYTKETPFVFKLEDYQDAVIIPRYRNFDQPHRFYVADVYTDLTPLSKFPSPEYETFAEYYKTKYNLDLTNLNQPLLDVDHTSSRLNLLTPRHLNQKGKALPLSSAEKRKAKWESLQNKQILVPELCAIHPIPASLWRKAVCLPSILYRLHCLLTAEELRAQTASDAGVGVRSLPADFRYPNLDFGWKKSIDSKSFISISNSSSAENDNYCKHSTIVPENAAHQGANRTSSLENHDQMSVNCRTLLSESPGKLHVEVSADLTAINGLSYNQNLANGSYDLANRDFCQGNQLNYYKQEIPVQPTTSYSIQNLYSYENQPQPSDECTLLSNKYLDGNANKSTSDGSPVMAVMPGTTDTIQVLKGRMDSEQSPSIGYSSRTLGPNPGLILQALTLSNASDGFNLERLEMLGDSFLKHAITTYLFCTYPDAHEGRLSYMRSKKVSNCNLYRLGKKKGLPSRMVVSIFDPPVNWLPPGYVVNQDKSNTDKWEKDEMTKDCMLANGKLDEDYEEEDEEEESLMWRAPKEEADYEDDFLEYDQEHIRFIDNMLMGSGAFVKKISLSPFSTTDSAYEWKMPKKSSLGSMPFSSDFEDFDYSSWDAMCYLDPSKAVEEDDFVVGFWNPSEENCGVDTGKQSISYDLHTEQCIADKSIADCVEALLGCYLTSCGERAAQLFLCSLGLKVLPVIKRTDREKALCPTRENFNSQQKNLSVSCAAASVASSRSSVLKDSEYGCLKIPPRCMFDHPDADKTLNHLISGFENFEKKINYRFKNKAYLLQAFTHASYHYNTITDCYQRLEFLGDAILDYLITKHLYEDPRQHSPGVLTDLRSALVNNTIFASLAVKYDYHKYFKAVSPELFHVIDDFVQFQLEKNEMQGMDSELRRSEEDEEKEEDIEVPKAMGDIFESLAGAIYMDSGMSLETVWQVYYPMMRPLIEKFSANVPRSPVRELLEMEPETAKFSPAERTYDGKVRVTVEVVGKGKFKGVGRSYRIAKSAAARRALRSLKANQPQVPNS
The experiment can be described thus: split reporter; BiFC with Venus halves, plasmids co-transfected for 24 h in NoDiceΔPKR HEK293T cells, then mock or SINV (MOI 2, 6 h); epifluorescence on living cells or confocal microscopy on fixed cells.

Experiment [2] concerns the target N-terVenus:DICER (wild type) (human) (UniProt Q9UPY3). Briefly: split reporter; BiFC with Venus halves, plasmids co-transfected for 24 h in HEK293T cells (endogenous DICER and PKR present), then mock or SINV (MOI 2, 6 h); epifluorescence.
Experiment [3] addresses FHA:DICER WT (transfected in NoDice 2.20 cells) (human) (UniProt Q9UPY3). The experiment can be described thus: co-IP; as a12, mock (not infected) NoDice 2.20 cells only.

These are yes or no findings as the source states them, for the method shown. In cells and extracts the contact can be indirect. Some results given as binding are weak or reduced against the parent protein; the word gives no strength.

For “PKR:Venus C-ter (from UniProt P19525 1-551) (enzyme)”, the figures for the binding result in experiment [1] and in experiment [2] were “no binding” and “binds”, respectively.

B1: PACT:Venus C-ter (protein, UniProt O75569 1-313)
chain: MSQSRHRAEAPPLEREDSGTFSLGKMITAKPGKTPIQVLHEYGMKTKNIPVYECERSDVQIHVPTFTFRVTVGDITCTGEGTSKKLAKHRAAEAAINILKANASICFAVPDPLMPDPSKQPKNQLNPIGSLQELAIHHGWRLPEYTLSQEGGPAHKREYTTICRLESFMETGKGASKKQAKRNAAEKFLAKFSNISPENHISLTNVVGHSLGCTWHSLRNSPGEKINLLKRSLLSIPNTDYIQLLSEIAKEQGFNITYLDIDELSANGQYQCLAELSTSPITVCHGSGISCGNAQSDAAHNALQYLKIIAERK
For B1, the binding result in experiment [1] is given as “no binding”; in experiment [2] it was “binds”.

B2: protein activator of interferon-induced protein kinase R (PACT), endogenous (protein, UniProt O75569 1-313)
chain: B1 chain
As for B2, the binding result in experiment [3] is recorded as “binds weakly”.
